Some of the results follow. Further columns of the screen follow, without active or inactive calls. Most of these compounds were active or inconclusive in the main read-out, so they are no random draw. Words in brackets tell the shape of the fitted curve; partial curves, single points and poor fits give uncertain potencies.
Test: qHTS Assay to Find Inhibitors of Chronic Active B-Cell Receptor Signaling
Settings: ABC-DLBCL IkBa-CBG/CBR reporter, luminescence ratio (green luciferase fused to IkBa over red control in TMD8 lymphoma cells), 4 h
In short: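 TMD8 human ABC-DLBCL cells with doxycycline-inducible IκBα–green luciferase fusion and unfused red luciferase, in 0.5% FBS medium; compounds up to 46 uM, 4 h at 37C. Green/red luminescence ratio, filter-overlap corrected, fitted to concentration-response curves.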

[1] = measured here: CBR red luminescence, cell number
[2] = measured here: IkBa-CBG green luminescence

SMILES | AC50 [1] | AC50 [2]
CNS(=O)(=O)c1cc(S(=O)(=O)NC)c2cccc3c2c1NC3=O | 35.5 µM [falling, single point] | –
CCOC(=O)c1nnc(-c2ccccc2)[nH]c1=O | 14.1 µM [falling, single point] | –
Cc1cccc(Oc2nc(-c3ccccc3)cc(C)c2S(C)(=O)=O)c1C | 6.51 µM [rising, partial curve, poor fit] | –
O=S(=O)(NCC(c1ccco1)N1CCc2ccccc2C1)c1ccc(F)cc1 (configuration not stated) | 3.66 µM [rising, partial curve, poor fit] | –
COCCCNc1c2c3c(cccc3[nH]c1=O)C(=O)c1ccccc1-2 | 6.51 µM [falling, partial curve, poor fit] | 11.6 µM [rising, partial curve, poor fit]
CN(C)c1oc(-c2cccs2)nc1C#N | 0.562 µM [rising, full curve, poor fit] | –
Cc1cc(Cl)ccc1OCC(=O)NC1CCCC1 | 8.2 µM [rising, partial curve] | –
Cc1noc(C)c1COC(=O)CCCc1c[nH]c2ccccc12 | 6.51 µM [falling, single point] | –
Cc1ccc(C)c2nc3sc(C(=O)N4CCCc5ccccc54)c(N)c3cc12 | 31.6 µM [rising, single point] | –
COc1ccc(C(=O)NOCc2ccccc2)cc1 | 7.31 µM [falling, partial curve] | –
COC(=O)CN1C(=O)Nc2ccc(Cl)cc2C1c1ccccc1 (configuration not stated) | 6.31 µM [rising, single point] | –
CC(C)=CCC/C(C)=C/CNC(=O)C[C@H]1C[C@H](C(=O)N2CCCCC2)[C@@]2(C)c3[nH]c4cc(-c5ccco5)ccc4c3CCN2C1=O | 16.4 µM [falling, single point] | –
O=C(OCC(=O)N1CCOCC1)c1ccc2ccccc2c1 | 11.6 µM [falling, partial curve] | –
COc1ccccc1NC(=S)NC(=O)/C=C/c1ccco1 | 0.651 µM [falling, full curve, poor fit] | –
Cc1cc(C)nc(SCC(=O)NC2=NC(=O)C(C)S2)n1 (configuration not stated) | 6.51 µM [rising, single point] | –
COC(=O)c1cc(N=Cc2c(O)c3ccccc3oc2=O)cc(C(=O)OC)c1 | 2.82 µM [falling, full curve] | –
C=CCNC(=S)NNC(=O)c1cccn(Cc2ccc(Cl)c(Cl)c2)c1=O | 10 µM [falling, partial curve] | –
COc1ccc(OCCNC(=O)c2cc(C3CC3)nc3c2cnn3C(C)C)cc1 | 18.4 µM [falling, single point] | –
CCCC(CCC(=O)Nc1nccs1)C(=O)O (configuration not stated) | 35.5 µM [rising, partial curve, poor fit] | –
NC(=O)C1CCN(Cc2cccc(OCc3ccccc3)c2)CC1 | 8.91 µM [falling, partial curve] | –
CSc1cccc(NC(=O)CN(c2cccc(C)c2)S(C)(=O)=O)c1 | 0.184 µM [falling, full curve, poor fit] | –
O=C(CCc1ccccc1)Nc1ncc([N+](=O)[O-])s1 | 0.316 µM [falling, full curve] | 3.55 µM [rising, partial curve, poor fit]

SMILES | AC50 [1] | AC50 [2]
CCOC(=O)c1ccc(NCCOC)c([N+](=O)[O-])c1 | 17.8 µM [rising, single point] | –
CC1(C)CC1C(=O)Nc1ccc([N+](=O)[O-])cc1Br (configuration not stated) | 14.6 µM [rising, partial curve] | –
COc1ccc(OC)c(C2C(C#N)=C(N)N(N(C)C)C3=C2C(=O)CCC3)c1 (configuration not stated) | 7.08 µM [rising, partial curve, poor fit] | –
CCN(CC(=O)Nc1c(F)cccc1F)C(=O)c1cc(-c2cccs2)nn1-c1ccccc1 | 2.31 µM [rising, single point] | –
COc1cc2c(cc1OC)CN(C(=O)c1ccc(Cl)c(S(=O)(=O)N3CCCC3)c1)CC2 | 16.4 µM [rising, single point] | –
CCOC(=O)C1CCCN(CC(=O)Nc2c(C(=O)OC)[nH]c3ccc(Cl)cc23)C1 (configuration not stated) | 11.6 µM [falling, partial curve, poor fit] | –
COC(=O)CC1C(=O)NC(C)=C1C(=O)OC (configuration not stated) | 35.5 µM [falling, single point] | –
COc1cc2c(cc1OC)CN(CC(=O)NC(=O)NC1CCCCC1)CC2 | 0.794 µM [rising, full curve, poor fit] | –
O=C(O)c1ccc(-c2nnn(Cc3cccc(C(F)(F)F)c3)n2)cc1 | 10 µM [rising, partial curve, poor fit] | –
CC(C)c1nc2ccccn2c1NC1CCCCC1 | 10 µM [falling, partial curve] | –
COCCOC(=O)c1[nH]c2c(c1C)C(=O)CC(c1cccs1)C2 (configuration not stated) | – | 22.4 µM [falling, partial curve, poor fit]
CC(C)c1nnc(NC(=O)c2c(O)c3cccc4c3n(c2=O)CCC4)s1 | 14.1 µM [falling, single point] | –
O=c1c2ccsc2ncn1Cc1cccc(C(F)(F)F)c1 | 3.55 µM [falling, partial curve, poor fit] | –
Cc1ccc(CNc2ccc3c(c2)ncn3C(C)C)cc1 | 14.1 µM [rising, partial curve, poor fit] | –
CC(=O)c1ccc(OCC(O)CN2CCc3ccccc3C2)cc1 (configuration not stated) | 3.98 µM [rising, full curve] | –
C[n+]1c2n(c3ccccc31)N=C(c1ccc(Cl)cc1)CS2 | 16.4 µM [rising, single point] | 20.6 µM [falling, partial curve, poor fit]
CCN1C(=O)/C(=C\N2CCN(c3ccc(F)cc3)CC2)SC1=S | 29.1 µM [rising, single point] | –
CCC(C)N(C(=O)COc1ccc(Cl)c2cccnc12)C1CCS(=O)(=O)C1 (configuration not stated) | 8.2 µM [falling, partial curve] | –
O=C(Nc1cccc(S(=O)(=O)N2CCCCC2)c1)c1ccc2c(=O)n3c(nc2c1)CCCCC3 | 4.61 µM [falling, full curve] | –
O=C(CCl)Nc1cccc(Oc2cnccn2)c1 | 11.2 µM [falling, partial curve] | –
COc1ccc(C(C#N)N2CCC(c3ccccc3)=N2)cc1 (configuration not stated) | 3.55 µM [rising, partial curve] | –
CCOc1ccccc1/C=N/Nc1nc2ccccc2o1 | 5.62 µM [falling, single point] | –

SMILES | AC50 [1] | AC50 [2]
CCOC(=O)C1=CN(Cc2ccco2)S(=O)(=O)NC1c1ccc(Br)cc1F (configuration not stated) | 18.4 µM [falling, single point] | –
O=C(CCc1ccccc1)NCC(=O)N/N=C/c1ccc(O)cc1O | 35.5 µM [falling, single point] | –
C=CCOc1ccccc1CNn1nnnc1N | 18.4 µM [falling, partial curve, poor fit] | –
Cc1c(OCC(=O)N(C)C)ccc2c(-c3ccccc3)cc(=O)oc12 | 6.31 µM [rising, partial curve, poor fit] | –
COc1cccc(N2CCN(C(=O)CCC(=O)N3CCOc4ccc(C)cc43)CC2)c1 | 2.82 µM [rising, partial curve, poor fit] | –
COc1ccc(NC(=O)CN(C)C(=O)CNC(=O)C2CCCCC2)cc1 | 35.5 µM [rising, partial curve, poor fit] | –
COc1ccc(C(=O)C2CCCN(Cc3ccc4nonc4c3)C2)cc1OC (configuration not stated) | 1.41 µM [falling, full curve, poor fit] | –
O=C(NCc1n[nH]c(=S)n1-c1cccc(Cl)c1)c1cccs1 | 35.5 µM [rising, single point] | –
COc1cc(NC(=O)CC2C(=O)N(c3ccccc3)C(=O)N2Cc2ccc(F)cc2)cc(OC)c1 (configuration not stated) | 2 µM [rising, full curve] | –
C[C@@H]1CN([C@H](C)CO)C(=O)Cc2cc(NC(=O)Nc3ccccc3)ccc2O[C@@H]1CN(C)C(=O)Nc1ccc2c(c1)OCO2 | 29.1 µM [rising, partial curve, poor fit] | –
O=C(N/N=C/C1CCCCC1)c1ccccn1 | 35.5 µM [falling, single point] | –
COc1ccc(CN(C)CC(O)COC(c2ccc(OC)cc2)c2ccc(OC)cc2)cc1 (configuration not stated) | 35.5 µM [falling, single point] | –
CCOc1cc(C2C(C(=O)N3CCOCC3)=C(C)NC3=C2C(=O)CCC3)ccc1O (configuration not stated) | 4.61 µM [rising, single point] | –
c1ccc2c(-c3nc(C4CCCCC4)no3)cc(-c3ccncc3)nc2c1 | 25.9 µM [rising, partial curve, poor fit] | –
Cc1cccc(NC(=S)NCC(C)CSc2ccc(Cl)cc2)c1 (configuration not stated) | 35.5 µM [falling, single point] | –
COc1ccc(OC)c(NC(=O)CSc2nc(=O)n(CCN(C)C)c3c2CCC3)c1 | 25.1 µM [falling, single point] | –
CN(C)S(=O)(=O)c1cccc(NC(=O)COc2cccc(C#N)c2)c1 | 6.51 µM [falling, partial curve, poor fit] | –
CCCCNC(=O)C1CCCN(S(=O)(=O)c2c(C)noc2/C=C/c2cccs2)C1 (configuration not stated) | 12.6 µM [rising, partial curve, poor fit] | –
COc1ccccc1C(C)NCC(=O)Nc1c(F)cccc1F (configuration not stated) | 3.98 µM [falling, partial curve, poor fit] | –
CC1CCN(C(=O)c2cc(-c3ccccc3O)on2)CC1 | 0.2 µM [rising, full curve, poor fit] | –

13 of the compounds above, tab-delimited:
SMILES	AC50 [1]	AC50 [2]
COc1ccc(NC(=O)CN(C)C(=O)CNC(=O)C2CCCCC2)cc1	35.5 µM [rising, partial curve, poor fit]	–
COc1ccc(C(=O)C2CCCN(Cc3ccc4nonc4c3)C2)cc1OC (configuration not stated)	1.41 µM [falling, full curve, poor fit]	–
O=C(NCc1n[nH]c(=S)n1-c1cccc(Cl)c1)c1cccs1	35.5 µM [rising, single point]	–
COc1cc(NC(=O)CC2C(=O)N(c3ccccc3)C(=O)N2Cc2ccc(F)cc2)cc(OC)c1 (configuration not stated)	2 µM [rising, full curve]	–
C[C@@H]1CN([C@H](C)CO)C(=O)Cc2cc(NC(=O)Nc3ccccc3)ccc2O[C@@H]1CN(C)C(=O)Nc1ccc2c(c1)OCO2	29.1 µM [rising, partial curve, poor fit]	–
O=C(N/N=C/C1CCCCC1)c1ccccn1	35.5 µM [falling, single point]	–
COc1ccc(CN(C)CC(O)COC(c2ccc(OC)cc2)c2ccc(OC)cc2)cc1 (configuration not stated)	35.5 µM [falling, single point]	–
CCOc1cc(C2C(C(=O)N3CCOCC3)=C(C)NC3=C2C(=O)CCC3)ccc1O (configuration not stated)	4.61 µM [rising, single point]	–
c1ccc2c(-c3nc(C4CCCCC4)no3)cc(-c3ccncc3)nc2c1	25.9 µM [rising, partial curve, poor fit]	–
Cc1cccc(NC(=S)NCC(C)CSc2ccc(Cl)cc2)c1 (configuration not stated)	35.5 µM [falling, single point]	–
COc1ccc(OC)c(NC(=O)CSc2nc(=O)n(CCN(C)C)c3c2CCC3)c1	25.1 µM [falling, single point]	–
CN(C)S(=O)(=O)c1cccc(NC(=O)COc2cccc(C#N)c2)c1	6.51 µM [falling, partial curve, poor fit]	–
CCCCNC(=O)C1CCCN(S(=O)(=O)c2c(C)noc2/C=C/c2cccs2)C1 (configuration not stated)	12.6 µM [rising, partial curve, poor fit]	–
